Experimental data: patent publication US20240123070A1, “EPITOPE PEPTIDE OF RAS G13D MUTANT AND T CELL RECEPTOR RECOGNIZING RAS G13D MUTANT” (SHANGHAI GENBASE BIOTECHNOLOGY CO., LTD., priority 2021, published 2024)

B1: β95Q-A: B8.2.4 TCR point mutant, Vβ-CDR3 95Q to A; CDR3β ASSATVPPQH (protein)
TCR alpha: AQKITQTQPGMFVQEKEAVTLDCTYDTSDPSYGLFWYKQPSSGEMIFLIYQGSYDQQNATEGRYSLNFQKARKSANLVISASQLGDSAMYFCAMRERTGTASKLTFGTGTRLQVTLDIQNPEPAVYQLKDPRSQDSTLCLFTDFDSQINVPKTMESGTFITDKTVLDMKAMDSKSNGAIAWSNQTSFTCQDIFKETNATYPSSDVPCDATLTEKSFETDMNLNFQNLSVMGLRILLLKVAGFNLLMTLRLWSS
TCR beta: DVKVTQSSRYLVKRTGEKVFLECVQDMDHENMFWYRQDPGLGLRLIYFSYDVKMKEKGDIPEGYSVSREKKERFSLILESASTNQTSMYLCASSATVPPQHFGDGTRLSILEDLRNVTPPKVSLFEPSKAEIANKQKATLVCLARGFFPDHVELSWWVNGKEVHSGVSTDPQAYKESNYSYCLSSRLRVSATFWHNPRNHFRCQVQFHGLSEEDKWPEGSPKPVTQNISAEAWGRADCGITSASYQQGVLSATILYEILLGKATLYAVLVSTLVVMAMVKRKNS
B2: β95Q-D: B8.2.4 TCR point mutant, Vβ-CDR3 95Q to D; CDR3β ASSDTVPPQH (protein)
TCR alpha: AQKITQTQPGMFVQEKEAVTLDCTYDTSDPSYGLFWYKQPSSGEMIFLIYQGSYDQQNATEGRYSLNFQKARKSANLVISASQLGDSAMYFCAMRERTGTASKLTFGTGTRLQVTLDIQNPEPAVYQLKDPRSQDSTLCLFTDFDSQINVPKTMESGTFITDKTVLDMKAMDSKSNGAIAWSNQTSFTCQDIFKETNATYPSSDVPCDATLTEKSFETDMNLNFQNLSVMGLRILLLKVAGFNLLMTLRLWSS
TCR beta: DVKVTQSSRYLVKRTGEKVFLECVQDMDHENMFWYRQDPGLGLRLIYFSYDVKMKEKGDIPEGYSVSREKKERFSLILESASTNQTSMYLCASSDTVPPQHFGDGTRLSILEDLRNVTPPKVSLFEPSKAEIANKQKATLVCLARGFFPDHVELSWWVNGKEVHSGVSTDPQAYKESNYSYCLSSRLRVSATFWHNPRNHFRCQVQFHGLSEEDKWPEGSPKPVTQNISAEAWGRADCGITSASYQQGVLSATILYEILLGKATLYAVLVSTLVVMAMVKRKNS
B3: β95Q-I: B8.2.4 TCR point mutant, Vβ-CDR3 95Q to I; CDR3β ASSITVPPQH (protein)
TCR alpha: AQKITQTQPGMFVQEKEAVTLDCTYDTSDPSYGLFWYKQPSSGEMIFLIYQGSYDQQNATEGRYSLNFQKARKSANLVISASQLGDSAMYFCAMRERTGTASKLTFGTGTRLQVTLDIQNPEPAVYQLKDPRSQDSTLCLFTDFDSQINVPKTMESGTFITDKTVLDMKAMDSKSNGAIAWSNQTSFTCQDIFKETNATYPSSDVPCDATLTEKSFETDMNLNFQNLSVMGLRILLLKVAGFNLLMTLRLWSS
TCR beta: DVKVTQSSRYLVKRTGEKVFLECVQDMDHENMFWYRQDPGLGLRLIYFSYDVKMKEKGDIPEGYSVSREKKERFSLILESASTNQTSMYLCASSITVPPQHFGDGTRLSILEDLRNVTPPKVSLFEPSKAEIANKQKATLVCLARGFFPDHVELSWWVNGKEVHSGVSTDPQAYKESNYSYCLSSRLRVSATFWHNPRNHFRCQVQFHGLSEEDKWPEGSPKPVTQNISAEAWGRADCGITSASYQQGVLSATILYEILLGKATLYAVLVSTLVVMAMVKRKNS
B4: β95Q-C: B8.2.4 TCR point mutant, Vβ-CDR3 95Q to C; CDR3β ASSCTVPPQH (protein)
TCR alpha: AQKITQTQPGMFVQEKEAVTLDCTYDTSDPSYGLFWYKQPSSGEMIFLIYQGSYDQQNATEGRYSLNFQKARKSANLVISASQLGDSAMYFCAMRERTGTASKLTFGTGTRLQVTLDIQNPEPAVYQLKDPRSQDSTLCLFTDFDSQINVPKTMESGTFITDKTVLDMKAMDSKSNGAIAWSNQTSFTCQDIFKETNATYPSSDVPCDATLTEKSFETDMNLNFQNLSVMGLRILLLKVAGFNLLMTLRLWSS
TCR beta: DVKVTQSSRYLVKRTGEKVFLECVQDMDHENMFWYRQDPGLGLRLIYFSYDVKMKEKGDIPEGYSVSREKKERFSLILESASTNQTSMYLCASSCTVPPQHFGDGTRLSILEDLRNVTPPKVSLFEPSKAEIANKQKATLVCLARGFFPDHVELSWWVNGKEVHSGVSTDPQAYKESNYSYCLSSRLRVSATFWHNPRNHFRCQVQFHGLSEEDKWPEGSPKPVTQNISAEAWGRADCGITSASYQQGVLSATILYEILLGKATLYAVLVSTLVVMAMVKRKNS
B5: β95Q-G: B8.2.4 TCR point mutant, Vβ-CDR3 95Q to G; CDR3β ASSGTVPPQH (protein)
TCR alpha: AQKITQTQPGMFVQEKEAVTLDCTYDTSDPSYGLFWYKQPSSGEMIFLIYQGSYDQQNATEGRYSLNFQKARKSANLVISASQLGDSAMYFCAMRERTGTASKLTFGTGTRLQVTLDIQNPEPAVYQLKDPRSQDSTLCLFTDFDSQINVPKTMESGTFITDKTVLDMKAMDSKSNGAIAWSNQTSFTCQDIFKETNATYPSSDVPCDATLTEKSFETDMNLNFQNLSVMGLRILLLKVAGFNLLMTLRLWSS
TCR beta: DVKVTQSSRYLVKRTGEKVFLECVQDMDHENMFWYRQDPGLGLRLIYFSYDVKMKEKGDIPEGYSVSREKKERFSLILESASTNQTSMYLCASSGTVPPQHFGDGTRLSILEDLRNVTPPKVSLFEPSKAEIANKQKATLVCLARGFFPDHVELSWWVNGKEVHSGVSTDPQAYKESNYSYCLSSRLRVSATFWHNPRNHFRCQVQFHGLSEEDKWPEGSPKPVTQNISAEAWGRADCGITSASYQQGVLSATILYEILLGKATLYAVLVSTLVVMAMVKRKNS
B6: β95Q-H: B8.2.4 TCR point mutant, Vβ-CDR3 95Q to H; CDR3β ASSHTVPPQH (protein)
TCR alpha: AQKITQTQPGMFVQEKEAVTLDCTYDTSDPSYGLFWYKQPSSGEMIFLIYQGSYDQQNATEGRYSLNFQKARKSANLVISASQLGDSAMYFCAMRERTGTASKLTFGTGTRLQVTLDIQNPEPAVYQLKDPRSQDSTLCLFTDFDSQINVPKTMESGTFITDKTVLDMKAMDSKSNGAIAWSNQTSFTCQDIFKETNATYPSSDVPCDATLTEKSFETDMNLNFQNLSVMGLRILLLKVAGFNLLMTLRLWSS
TCR beta: DVKVTQSSRYLVKRTGEKVFLECVQDMDHENMFWYRQDPGLGLRLIYFSYDVKMKEKGDIPEGYSVSREKKERFSLILESASTNQTSMYLCASSHTVPPQHFGDGTRLSILEDLRNVTPPKVSLFEPSKAEIANKQKATLVCLARGFFPDHVELSWWVNGKEVHSGVSTDPQAYKESNYSYCLSSRLRVSATFWHNPRNHFRCQVQFHGLSEEDKWPEGSPKPVTQNISAEAWGRADCGITSASYQQGVLSATILYEILLGKATLYAVLVSTLVVMAMVKRKNS
B7: β95Q-E: B8.2.4 TCR point mutant, Vβ-CDR3 95Q to E; CDR3β ASSETVPPQH (protein)
TCR alpha: AQKITQTQPGMFVQEKEAVTLDCTYDTSDPSYGLFWYKQPSSGEMIFLIYQGSYDQQNATEGRYSLNFQKARKSANLVISASQLGDSAMYFCAMRERTGTASKLTFGTGTRLQVTLDIQNPEPAVYQLKDPRSQDSTLCLFTDFDSQINVPKTMESGTFITDKTVLDMKAMDSKSNGAIAWSNQTSFTCQDIFKETNATYPSSDVPCDATLTEKSFETDMNLNFQNLSVMGLRILLLKVAGFNLLMTLRLWSS
TCR beta: DVKVTQSSRYLVKRTGEKVFLECVQDMDHENMFWYRQDPGLGLRLIYFSYDVKMKEKGDIPEGYSVSREKKERFSLILESASTNQTSMYLCASSETVPPQHFGDGTRLSILEDLRNVTPPKVSLFEPSKAEIANKQKATLVCLARGFFPDHVELSWWVNGKEVHSGVSTDPQAYKESNYSYCLSSRLRVSATFWHNPRNHFRCQVQFHGLSEEDKWPEGSPKPVTQNISAEAWGRADCGITSASYQQGVLSATILYEILLGKATLYAVLVSTLVVMAMVKRKNS
B8: β95Q-K: B8.2.4 TCR point mutant, Vβ-CDR3 95Q to K (protein)
TCR alpha: AQKITQTQPGMFVQEKEAVTLDCTYDTSDPSYGLFWYKQPSSGEMIFLIYQGSYDQQNATEGRYSLNFQKARKSANLVISASQLGDSAMYFCAMRERTGTASKLTFGTGTRLQVTLDIQNPEPAVYQLKDPRSQDSTLCLFTDFDSQINVPKTMESGTFITDKTVLDMKAMDSKSNGAIAWSNQTSFTCQDIFKETNATYPSSDVPCDATLTEKSFETDMNLNFQNLSVMGLRILLLKVAGFNLLMTLRLWSS
TCR beta: DVKVTQSSRYLVKRTGEKVFLECVQDMDHENMFWYRQDPGLGLRLIYFSYDVKMKEKGDIPEGYSVSREKKERFSLILESASTNQTSMYLCASSKTVPPQHFGDGTRLSILEDLRNVTPPKVSLFEPSKAEIANKQKATLVCLARGFFPDHVELSWWVNGKEVHSGVSTDPQAYKESNYSYCLSSRLRVSATFWHNPRNHFRCQVQFHGLSEEDKWPEGSPKPVTQNISAEAWGRADCGITSASYQQGVLSATILYEILLGKATLYAVLVSTLVVMAMVKRKNS
B9: β95Q-F: B8.2.4 TCR point mutant, Vβ-CDR3 95Q to F (protein)
TCR alpha: AQKITQTQPGMFVQEKEAVTLDCTYDTSDPSYGLFWYKQPSSGEMIFLIYQGSYDQQNATEGRYSLNFQKARKSANLVISASQLGDSAMYFCAMRERTGTASKLTFGTGTRLQVTLDIQNPEPAVYQLKDPRSQDSTLCLFTDFDSQINVPKTMESGTFITDKTVLDMKAMDSKSNGAIAWSNQTSFTCQDIFKETNATYPSSDVPCDATLTEKSFETDMNLNFQNLSVMGLRILLLKVAGFNLLMTLRLWSS
TCR beta: DVKVTQSSRYLVKRTGEKVFLECVQDMDHENMFWYRQDPGLGLRLIYFSYDVKMKEKGDIPEGYSVSREKKERFSLILESASTNQTSMYLCASSFTVPPQHFGDGTRLSILEDLRNVTPPKVSLFEPSKAEIANKQKATLVCLARGFFPDHVELSWWVNGKEVHSGVSTDPQAYKESNYSYCLSSRLRVSATFWHNPRNHFRCQVQFHGLSEEDKWPEGSPKPVTQNISAEAWGRADCGITSASYQQGVLSATILYEILLGKATLYAVLVSTLVVMAMVKRKNS
B10: β95Q-L: B8.2.4 TCR point mutant, Vβ-CDR3 95Q to L; CDR3β ASSLTVPPQH (protein)
TCR alpha: AQKITQTQPGMFVQEKEAVTLDCTYDTSDPSYGLFWYKQPSSGEMIFLIYQGSYDQQNATEGRYSLNFQKARKSANLVISASQLGDSAMYFCAMRERTGTASKLTFGTGTRLQVTLDIQNPEPAVYQLKDPRSQDSTLCLFTDFDSQINVPKTMESGTFITDKTVLDMKAMDSKSNGAIAWSNQTSFTCQDIFKETNATYPSSDVPCDATLTEKSFETDMNLNFQNLSVMGLRILLLKVAGFNLLMTLRLWSS
TCR beta: DVKVTQSSRYLVKRTGEKVFLECVQDMDHENMFWYRQDPGLGLRLIYFSYDVKMKEKGDIPEGYSVSREKKERFSLILESASTNQTSMYLCASSLTVPPQHFGDGTRLSILEDLRNVTPPKVSLFEPSKAEIANKQKATLVCLARGFFPDHVELSWWVNGKEVHSGVSTDPQAYKESNYSYCLSSRLRVSATFWHNPRNHFRCQVQFHGLSEEDKWPEGSPKPVTQNISAEAWGRADCGITSASYQQGVLSATILYEILLGKATLYAVLVSTLVVMAMVKRKNS

These molecules were tested on murine TCRβ constant region (assay: mTCRβ expression detection on Jurkat-NFAT-Luc cells). Conditions: TCR mutant transduced Jurkat-NFAT-Luc cells.
Assay type: cell-based
With B1 the mTCRβ % was 74.9%.
In the case of B2, the mTCRβ % is reported as 77.1%.
B3 gave a mTCRβ % of 75.6%.
Molecule B4 has a mTCRβ % of 82.1%.
With B5 the mTCRβ % was 76.6%.
For B6, the mTCRβ % was 69.2%.
For B7, the mTCRβ % was 36.5%.
With B8 the mTCRβ % was 73.7%.
With B9 the mTCRβ % was 80%.
Molecule B10 has a mTCRβ % of 68.6%.
